Patent publication US20110212105A1

Target: T1, human alpha-2 macroglobulin activated by methylamine treatment (human) (UniProt P01023)
T1 sequence: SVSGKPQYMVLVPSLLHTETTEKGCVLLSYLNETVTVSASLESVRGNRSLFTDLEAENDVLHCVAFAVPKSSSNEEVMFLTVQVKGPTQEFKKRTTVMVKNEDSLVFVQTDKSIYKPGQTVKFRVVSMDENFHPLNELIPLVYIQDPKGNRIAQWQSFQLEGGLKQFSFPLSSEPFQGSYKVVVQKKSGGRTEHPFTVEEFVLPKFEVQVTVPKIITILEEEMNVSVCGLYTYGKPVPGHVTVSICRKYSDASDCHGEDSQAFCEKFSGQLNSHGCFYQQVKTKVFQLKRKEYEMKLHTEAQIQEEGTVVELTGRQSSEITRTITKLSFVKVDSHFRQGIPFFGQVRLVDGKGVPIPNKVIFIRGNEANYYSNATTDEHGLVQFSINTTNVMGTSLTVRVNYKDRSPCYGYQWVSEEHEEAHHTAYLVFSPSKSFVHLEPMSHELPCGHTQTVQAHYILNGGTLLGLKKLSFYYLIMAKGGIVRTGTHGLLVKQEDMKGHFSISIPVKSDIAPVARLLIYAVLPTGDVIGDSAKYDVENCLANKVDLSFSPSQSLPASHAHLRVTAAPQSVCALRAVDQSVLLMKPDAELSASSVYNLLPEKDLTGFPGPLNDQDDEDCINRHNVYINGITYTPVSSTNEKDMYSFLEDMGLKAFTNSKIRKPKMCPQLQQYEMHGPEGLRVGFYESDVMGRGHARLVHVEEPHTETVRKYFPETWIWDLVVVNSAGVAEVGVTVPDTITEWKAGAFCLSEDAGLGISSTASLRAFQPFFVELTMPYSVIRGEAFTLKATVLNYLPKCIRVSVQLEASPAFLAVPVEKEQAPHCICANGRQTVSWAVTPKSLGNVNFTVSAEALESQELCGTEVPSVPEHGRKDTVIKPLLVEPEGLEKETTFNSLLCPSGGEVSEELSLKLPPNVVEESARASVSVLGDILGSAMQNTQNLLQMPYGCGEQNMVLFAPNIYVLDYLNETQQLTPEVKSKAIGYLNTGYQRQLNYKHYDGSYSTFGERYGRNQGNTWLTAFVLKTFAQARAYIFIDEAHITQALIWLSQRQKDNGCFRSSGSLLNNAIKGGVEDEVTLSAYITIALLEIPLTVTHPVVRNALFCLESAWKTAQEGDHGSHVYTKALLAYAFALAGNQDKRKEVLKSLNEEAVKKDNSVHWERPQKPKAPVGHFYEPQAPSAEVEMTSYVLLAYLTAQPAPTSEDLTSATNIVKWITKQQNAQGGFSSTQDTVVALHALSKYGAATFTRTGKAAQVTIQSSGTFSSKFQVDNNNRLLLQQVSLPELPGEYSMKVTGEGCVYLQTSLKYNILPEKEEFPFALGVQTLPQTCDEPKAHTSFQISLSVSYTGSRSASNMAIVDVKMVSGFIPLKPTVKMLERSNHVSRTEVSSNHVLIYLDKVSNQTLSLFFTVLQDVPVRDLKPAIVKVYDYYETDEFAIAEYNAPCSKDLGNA
Experiment: affinity chromatography of plasma fractions on immobilised MeNH2_A2M, specific elution with EDTA at pH 6, SDS-PAGE

Substance: α-chain of the A2MR receptor purified from human plasma (soluble A2MR)
- binding: binds

These are yes or no findings as the source states them, for the method shown. Binding can be weak; no strength is given.
